Experimental data published in patent publication US8142769B2, “Preparation and xenotransplantation of porcine islets” (Diabcell Pty Ltd, priority 2000, dated 2012).

Assays:
[1] = tested on: 7 d old porcine pancreas; test: Islet yield from enzymatic digestion of neonatal porcine pancreas (DTZ staining)
[2] = tested on: porcine islets; test: Static glucose stimulation (SGS): in vitro insulin secretion of porcine islets in culture; format: cell-based; conditions: Lignocaine during pancreatic digestion
Excerpt: Static glucose stimulation (SGS) is used to assess in vitro function of the porcine islets by exposing them to low and high concentrations of glucose and theophylline. Determination of the in vitro insulin secretory capacity is undertaken on both free islets (after 3 days in culture) and after their subsequent encapsulation.
Keep the cells 3 days in culture before Static Glucose Stimulation (SGS). SGS involves exposure of the cells to low and high concentration of glucose to check insulin production. […]
Islet endocrine function was assessed after 3 days in culture via static glucose stimulation. Islets isolated with Lignocaine during digestion produced a 3-fold increase in insulin secretion in response to glucose challenge.

CCN(CC)CC(=O)Nc1c(C)cccc1C [Lignocaine, reference compound]
Increase in islet yield ([1]; 1 mM during Collagenase digestion of 7 d old porcine pancreas): 2 fold
Average islet yield ([1]; Collagenase digestion of 7 d old porcine pancreas, with or without 1 mM Lignocaine): 88,183 IEQ/g
Increase of insulin production/g of pancreas [2]: 6 fold
